Binding data for one substance are collected here from publication PMC11575163.

By UniProt entry, the sequences of proteins in these tests, tags left out.
UniProt Q14258: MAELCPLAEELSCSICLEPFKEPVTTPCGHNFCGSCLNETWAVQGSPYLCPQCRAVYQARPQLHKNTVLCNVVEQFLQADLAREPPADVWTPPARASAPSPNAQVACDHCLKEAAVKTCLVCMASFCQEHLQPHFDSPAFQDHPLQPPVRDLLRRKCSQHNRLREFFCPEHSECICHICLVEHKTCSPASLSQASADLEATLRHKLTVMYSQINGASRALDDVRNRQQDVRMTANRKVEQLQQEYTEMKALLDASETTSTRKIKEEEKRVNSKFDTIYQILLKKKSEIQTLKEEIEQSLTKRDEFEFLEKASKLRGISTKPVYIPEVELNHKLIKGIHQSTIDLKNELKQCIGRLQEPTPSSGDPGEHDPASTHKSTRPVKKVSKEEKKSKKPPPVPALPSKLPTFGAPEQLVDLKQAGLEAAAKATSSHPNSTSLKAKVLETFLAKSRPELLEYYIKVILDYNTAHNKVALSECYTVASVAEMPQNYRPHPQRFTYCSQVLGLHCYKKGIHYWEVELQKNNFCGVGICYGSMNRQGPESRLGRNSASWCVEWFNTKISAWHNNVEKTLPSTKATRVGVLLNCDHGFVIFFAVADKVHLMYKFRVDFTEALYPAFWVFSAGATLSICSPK
UniProt Q14145: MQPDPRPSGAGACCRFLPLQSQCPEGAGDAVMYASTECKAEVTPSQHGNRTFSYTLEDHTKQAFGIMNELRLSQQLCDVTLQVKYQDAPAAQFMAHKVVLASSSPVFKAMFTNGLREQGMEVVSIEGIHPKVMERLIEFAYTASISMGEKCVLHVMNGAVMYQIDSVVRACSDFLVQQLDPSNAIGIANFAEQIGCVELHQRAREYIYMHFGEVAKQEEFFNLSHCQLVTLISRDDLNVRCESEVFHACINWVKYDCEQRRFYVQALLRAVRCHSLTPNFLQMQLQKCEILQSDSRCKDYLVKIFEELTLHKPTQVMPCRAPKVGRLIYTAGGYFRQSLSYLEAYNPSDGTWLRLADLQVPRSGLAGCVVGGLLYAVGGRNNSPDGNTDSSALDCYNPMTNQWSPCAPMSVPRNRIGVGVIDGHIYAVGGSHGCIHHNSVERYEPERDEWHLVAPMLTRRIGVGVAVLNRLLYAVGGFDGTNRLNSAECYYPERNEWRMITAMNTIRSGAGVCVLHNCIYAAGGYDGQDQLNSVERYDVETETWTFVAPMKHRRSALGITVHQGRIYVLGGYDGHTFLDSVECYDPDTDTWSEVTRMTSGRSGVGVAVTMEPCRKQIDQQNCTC

No constants are given. Whether binding was seen depends on the method and setting. In cells and extracts the contact can be indirect. Here binding means that the protein was enriched with, or labelled near, the bait; the list need not be complete.

In the assay the target is TRIM25 (as used in the co-IP with MS and in the KEAP1 and Nrf2 experiments of the supplement) (UniProt Q14258). Briefly: affinity purification with mass spectrometry; combination of co-IP and MS to find target proteins of TRIM25 (Fig. S4D); cells not given.

For the substance “Kelch-like ECH-associated protein 1 (KEAP1) (from UniProt Q14145 1-624)”, the binding result is recorded as “binds”.
